Binding data for one molecule are collected here from paper doi:10.1101/2022.04.08.487705.

Sequences of proteins named here, by UniProt entry; tags and fusion partners are left off. Residues count along the entry.
UniProt O08852, residues 24-4293: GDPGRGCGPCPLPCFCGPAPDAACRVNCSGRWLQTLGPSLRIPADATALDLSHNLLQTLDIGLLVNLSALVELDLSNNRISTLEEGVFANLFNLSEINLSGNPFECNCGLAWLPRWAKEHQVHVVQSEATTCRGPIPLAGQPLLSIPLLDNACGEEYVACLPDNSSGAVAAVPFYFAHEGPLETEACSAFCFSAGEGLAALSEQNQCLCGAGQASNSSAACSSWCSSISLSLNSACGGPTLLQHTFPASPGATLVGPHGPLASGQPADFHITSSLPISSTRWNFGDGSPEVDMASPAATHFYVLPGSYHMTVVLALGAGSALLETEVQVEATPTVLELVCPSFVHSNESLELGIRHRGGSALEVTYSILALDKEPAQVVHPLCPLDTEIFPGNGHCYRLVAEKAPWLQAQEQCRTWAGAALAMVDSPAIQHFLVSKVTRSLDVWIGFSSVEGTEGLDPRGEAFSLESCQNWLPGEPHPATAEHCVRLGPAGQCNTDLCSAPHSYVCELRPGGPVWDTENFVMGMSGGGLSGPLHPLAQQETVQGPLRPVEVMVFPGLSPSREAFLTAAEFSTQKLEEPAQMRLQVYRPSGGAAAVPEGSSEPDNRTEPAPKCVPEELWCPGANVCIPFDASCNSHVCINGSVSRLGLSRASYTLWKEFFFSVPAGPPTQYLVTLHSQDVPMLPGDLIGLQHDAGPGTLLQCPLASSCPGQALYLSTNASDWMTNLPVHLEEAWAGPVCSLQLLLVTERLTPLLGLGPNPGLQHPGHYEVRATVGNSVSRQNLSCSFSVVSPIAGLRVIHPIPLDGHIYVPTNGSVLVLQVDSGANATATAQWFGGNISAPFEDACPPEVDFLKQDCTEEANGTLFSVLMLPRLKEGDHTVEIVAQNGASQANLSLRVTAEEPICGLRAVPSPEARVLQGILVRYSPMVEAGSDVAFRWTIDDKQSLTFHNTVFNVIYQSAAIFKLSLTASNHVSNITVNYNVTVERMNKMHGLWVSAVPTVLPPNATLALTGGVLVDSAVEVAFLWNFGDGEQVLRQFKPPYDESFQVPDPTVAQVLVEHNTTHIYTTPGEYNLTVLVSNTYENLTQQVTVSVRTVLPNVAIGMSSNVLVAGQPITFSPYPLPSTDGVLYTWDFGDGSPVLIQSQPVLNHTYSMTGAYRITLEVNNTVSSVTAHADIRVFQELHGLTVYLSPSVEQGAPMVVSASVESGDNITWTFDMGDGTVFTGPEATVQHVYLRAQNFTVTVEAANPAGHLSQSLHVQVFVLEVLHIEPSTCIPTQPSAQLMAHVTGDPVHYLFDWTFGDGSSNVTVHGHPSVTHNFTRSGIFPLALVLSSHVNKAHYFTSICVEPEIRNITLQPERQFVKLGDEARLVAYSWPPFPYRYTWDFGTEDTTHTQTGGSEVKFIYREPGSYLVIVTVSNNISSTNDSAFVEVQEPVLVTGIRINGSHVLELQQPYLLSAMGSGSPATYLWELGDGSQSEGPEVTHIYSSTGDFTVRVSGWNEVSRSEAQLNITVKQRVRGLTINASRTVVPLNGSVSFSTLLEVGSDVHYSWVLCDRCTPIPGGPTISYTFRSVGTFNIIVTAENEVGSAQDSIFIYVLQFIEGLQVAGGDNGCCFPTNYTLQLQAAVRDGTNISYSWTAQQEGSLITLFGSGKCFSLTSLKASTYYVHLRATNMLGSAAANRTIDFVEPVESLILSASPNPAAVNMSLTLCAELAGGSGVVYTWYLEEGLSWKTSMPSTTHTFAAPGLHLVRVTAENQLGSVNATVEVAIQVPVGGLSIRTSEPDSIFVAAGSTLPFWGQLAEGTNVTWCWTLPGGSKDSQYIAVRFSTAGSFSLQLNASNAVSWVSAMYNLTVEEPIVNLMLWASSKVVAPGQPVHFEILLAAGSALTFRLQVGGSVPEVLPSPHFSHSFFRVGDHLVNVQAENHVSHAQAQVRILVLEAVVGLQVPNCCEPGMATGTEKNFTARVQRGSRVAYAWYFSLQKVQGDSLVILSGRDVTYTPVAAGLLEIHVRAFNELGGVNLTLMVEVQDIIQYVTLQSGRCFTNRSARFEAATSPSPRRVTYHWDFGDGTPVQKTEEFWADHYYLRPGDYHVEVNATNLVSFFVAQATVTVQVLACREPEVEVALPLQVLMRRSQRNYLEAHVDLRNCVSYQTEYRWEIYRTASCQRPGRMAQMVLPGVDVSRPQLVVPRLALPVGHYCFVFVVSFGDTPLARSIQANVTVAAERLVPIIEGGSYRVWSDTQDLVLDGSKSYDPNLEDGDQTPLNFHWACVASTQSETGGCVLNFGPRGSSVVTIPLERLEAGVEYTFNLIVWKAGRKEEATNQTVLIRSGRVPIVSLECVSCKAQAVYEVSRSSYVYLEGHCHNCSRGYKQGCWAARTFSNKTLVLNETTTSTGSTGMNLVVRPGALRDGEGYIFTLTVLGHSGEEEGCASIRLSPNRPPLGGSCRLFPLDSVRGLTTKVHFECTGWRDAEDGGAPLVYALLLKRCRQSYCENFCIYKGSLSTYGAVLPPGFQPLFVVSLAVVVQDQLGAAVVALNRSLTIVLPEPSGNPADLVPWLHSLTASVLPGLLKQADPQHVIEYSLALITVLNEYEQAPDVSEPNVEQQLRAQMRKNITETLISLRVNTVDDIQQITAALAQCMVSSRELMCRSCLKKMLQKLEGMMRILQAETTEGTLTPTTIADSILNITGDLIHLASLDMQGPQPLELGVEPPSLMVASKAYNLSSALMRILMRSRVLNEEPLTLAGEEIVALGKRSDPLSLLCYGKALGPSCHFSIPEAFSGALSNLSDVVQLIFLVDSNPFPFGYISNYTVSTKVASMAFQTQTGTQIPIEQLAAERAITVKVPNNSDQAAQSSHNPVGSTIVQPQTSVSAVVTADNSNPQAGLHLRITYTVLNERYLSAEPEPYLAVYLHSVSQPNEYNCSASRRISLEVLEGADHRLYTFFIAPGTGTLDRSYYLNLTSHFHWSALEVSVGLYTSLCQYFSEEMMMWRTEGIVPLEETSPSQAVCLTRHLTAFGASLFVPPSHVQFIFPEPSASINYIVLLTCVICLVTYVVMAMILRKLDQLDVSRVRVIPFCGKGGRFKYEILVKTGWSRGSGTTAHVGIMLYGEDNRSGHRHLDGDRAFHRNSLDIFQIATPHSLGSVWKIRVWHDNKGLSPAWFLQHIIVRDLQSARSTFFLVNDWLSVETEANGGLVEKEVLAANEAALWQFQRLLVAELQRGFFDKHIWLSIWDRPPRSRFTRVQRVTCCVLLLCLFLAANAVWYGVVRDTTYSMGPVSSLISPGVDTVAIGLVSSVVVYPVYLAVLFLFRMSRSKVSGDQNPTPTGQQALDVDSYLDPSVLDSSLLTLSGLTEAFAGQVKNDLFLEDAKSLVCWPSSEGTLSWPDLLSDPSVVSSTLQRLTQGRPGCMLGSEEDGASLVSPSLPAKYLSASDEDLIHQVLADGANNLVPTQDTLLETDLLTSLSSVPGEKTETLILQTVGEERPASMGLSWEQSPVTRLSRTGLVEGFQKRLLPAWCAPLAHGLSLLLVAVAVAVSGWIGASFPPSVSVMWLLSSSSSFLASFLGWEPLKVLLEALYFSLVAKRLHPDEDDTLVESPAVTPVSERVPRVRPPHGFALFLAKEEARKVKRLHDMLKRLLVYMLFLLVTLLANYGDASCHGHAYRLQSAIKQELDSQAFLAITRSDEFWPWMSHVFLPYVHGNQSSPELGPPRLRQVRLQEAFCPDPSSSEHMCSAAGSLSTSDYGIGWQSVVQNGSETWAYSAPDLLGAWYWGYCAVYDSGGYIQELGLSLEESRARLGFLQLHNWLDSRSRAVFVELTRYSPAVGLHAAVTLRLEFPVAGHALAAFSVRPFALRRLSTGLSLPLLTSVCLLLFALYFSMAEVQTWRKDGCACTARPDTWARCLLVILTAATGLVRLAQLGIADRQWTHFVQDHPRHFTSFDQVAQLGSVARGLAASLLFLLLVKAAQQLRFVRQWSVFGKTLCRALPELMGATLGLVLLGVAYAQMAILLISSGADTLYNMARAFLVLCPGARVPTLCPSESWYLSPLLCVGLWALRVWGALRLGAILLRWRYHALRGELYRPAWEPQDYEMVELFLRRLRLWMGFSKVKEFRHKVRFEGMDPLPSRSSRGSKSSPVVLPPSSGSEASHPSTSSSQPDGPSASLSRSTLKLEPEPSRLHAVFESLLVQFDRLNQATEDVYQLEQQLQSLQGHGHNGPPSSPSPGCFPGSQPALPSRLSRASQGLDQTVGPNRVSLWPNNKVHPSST

These are yes or no findings as the source states them, for the method shown. In cells and extracts the contact can be indirect. These calls come from enrichment with a bait or labelling near it, and not all partners need be listed.

In the test the target is tagged polycystin-1 (PC1-eGFP), product of the Pkd1^eGFP knock-in allele (mouse) (UniProt O08852). The test is described as follows: affinity purification with mass spectrometry.

B1: nicotinamide nucleotide transhydrogenase (Nnt) (protein, UniProt Q61941 44-1086)
chain: CKSPVKPGIPYKQLTVGVPKEIFQNEKRVALSPAGVQALVKQGFNVVVESGAGEASKFPDDLYRAAGAQIQGMKEVLASDLVVKVRAPMVNPTLGAHEADFLKPSGTLISFIYPAQNPDLLNKLSERKTTVLAMDQVPRVTIAQGYDALSSMANISGYKAVVLAANHFGRFFTGQITAAGKVPPAKILIVGGGVAGLASAGAAKSMGAVVRGFDTRAAALEQFKSLGAEPLEVDLKESGEGQGGYAKEMSKEFIEAEMKLFAQQCKEVDILISTALIPGKKAPVLFSKEMIESMKEGSVVVDLAAEAGGNFETTKPGELYVHKGITHIGYTDLPSRMATQASTLYSNNITKLLKAISPDKDNFHFEVKDDFDFGTMSHVIRGTVVMKDGKVIFPAPTPKNIPEEAPVKPKTVAELEAEKAGTVSMYTKTLTTASVYSAGLTGMLGLGIVAPNVAFSQMVTTFGLAGIIGYHTVWGVTPALHSPLMSVTNAISGLTAVGGLALMGGHFYPSTTSQSLAALATFISSVNIAGGFLVTQRMLDMFKRPTDPPEYNYLYLLPGGTFVGGYLAALYGGYNIEEIMYLGSGLCCVGALGGLSTQGTARLGNALGMIGVAGGLAATLGGLKPDPQLLAQMSGAMAMGGTIGLTIAKRIQISDLPQLVAAFHSLVGLAAVLTCMAEYIVEYPHFAMDATSNFTKIVAYLGTYIGGVTFSGSLVAYGKLQGILKSAPLLLPGRHALNAGLLAASVGGIIPFMADPSFTTGITCLGSVSGLSTLMGVTLTAAIGGADMPVVITVLNSYSGWALCAEGFLLNNNLLTIVGALIGSSGAILSYIMCVAMNRSLANVILGGYGTTSTAGGKPMEISGTHTEINLDNAVEMIREANSIVITPGYGLCAAKAQYPIADLVKMLTEQGKKVRFGIHPVAGRMPGQLNVLLAEAGVPYDIVLEMDEINSDFPDTDLVLVIGANDTVNSAAQEDPNSIIAGMPVLEVWKSKQVIVMKRSLGVGYAAVDNPIFYKPNTAMLLGDAKKTCDALQAKVRESYQK
For B1, the binding result is recorded as “binds”.
